Reference: PubChem BioAssay AID1259405 (NCATS, 2018)
Assay: 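Silenced genes that increase secreted GFP made by CHO cells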 (primary screen). System: Chinese hamster CHO-K1 ovary cells with stable secreted eGFP expression. Reagents: single siRNA against mouse genes, 0.8 pmol siRNA per well (2 µl of 400 nM stock). Timing: 3 days. Read-out: 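Per-well intracellular GFP measured by laser scanning cytometry, plus viability from ATP luminescence, each relative to plate median of non-targeting control wells, in %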. Scale: GFP, % of control: higher = more GFP per well, higher productivity. Active means: 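a knock-down is called active if GFP reaches 120% or more of non-targeting control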.
Shown is a random part of about 50,000 deposited reagents. About 4,000 of all reagents (8%) count as active. 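Mouse siRNA library applied to hamster cells; one well for each siRNA.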 Reagents against one gene are numbered here. Not all columns of the deposit are shown.

GFP, % of control, by target gene and reagent
Tmem132a (transmembrane protein 132A): #1 95.2 inactive; #2 53.1 inactive; #3 55.1 inactive
Slamf7 (SLAM family member 7): #1 120 active; #2 104 inactive; #3 89.2 inactive
Map3k4 (mitogen-activated protein kinase kinase kinase 4): #1 102 inactive
Pyurf (Pigy upstream reading frame): #1 108 inactive; #2 108 inactive; #3 95.6 inactive
Ly6k (lymphocyte antigen 6 family member K): #1 94.9 inactive; #2 102 inactive; #3 71.9 inactive
Smtnl1 (smoothelin-like 1): #1 74.6 inactive; #2 79.1 inactive; #3 43.8 inactive
Csf2rb2: #1 95.4 inactive; #2 74.3 inactive; #3 66.2 inactive
Cnot6 (CCR4-NOT transcription complex, subunit 6): #1 130 active; #2 66.3 inactive; #3 81.3 inactive
Or4n4 (olfactory receptor family 4 subfamily N member 4): #1 136 active; #2 81.7 inactive; #3 103 inactive
Irs4 (insulin receptor substrate 4): #1 92.3 inactive; #2 79.6 inactive; #3 40.7 inactive
Thbs2 (thrombospondin 2): #1 108 inactive; #2 39.5 inactive
Gm9946 (predicted gene 9946): #1 88 inactive; #2 92.7 inactive; #3 74.2 inactive
Bsdc1 (BSD domain containing 1): #1 68.4 inactive; #2 86 inactive; #3 102 inactive
Itga6 (integrin alpha 6): #1 107 inactive; #2 89.5 inactive
Kdelr1: #1 66.8 inactive; #2 63.6 inactive
Kif2a (kinesin family member 2A): #1 67 inactive; #2 57.7 inactive
Rangrf (RAN guanine nucleotide release factor): #1 42.2 inactive; #2 85.1 inactive; #3 51.4 inactive
Rab4a (RAB4A, member RAS oncogene family): #1 225 active; #2 90 inactive; #3 91.2 inactive
Myo1f (myosin IF): #1 103 inactive; #2 39.3 inactive
Fzd5 (frizzled class receptor 5): #1 89.6 inactive; #2 82.4 inactive

Records above marked active (4):
GFP, % of control, by target gene and reagent
Slamf7 (SLAM family member 7): #1 120 active
Cnot6 (CCR4-NOT transcription complex, subunit 6): #1 130 active
Or4n4 (olfactory receptor family 4 subfamily N member 4): #1 136 active
Rab4a (RAB4A, member RAS oncogene family): #1 225 active

Next records follow.
GFP, % of control, by target gene and reagent
Pik3r5 (phosphoinositide-3-kinase regulatory subunit 5): #1 27.2 inactive; #2 59.9 inactive
Dcaf4 (DDB1 and CUL4 associated factor 4): #1 65.7 inactive; #2 107 inactive; #3 56.5 inactive
Pgm5 (phosphoglucomutase 5): #1 70.9 inactive; #2 190 active; #3 50.9 inactive
Uncx (UNC homeobox): #1 65.8 inactive; #2 82.2 inactive; #3 79.5 inactive
Mab21l1 (mab-21-like 1): #1 47.8 inactive; #2 96.1 inactive; #3 61.4 inactive
Slc16a8: #1 68.4 inactive; #2 113 inactive; #3 153 active
Colec10 (collectin sub-family member 10): #1 121 active; #2 53.7 inactive; #3 60.2 inactive
Dcaf12l2 (DDB1 and CUL4 associated factor 12-like 2): #1 117 inactive; #2 57.5 inactive; #3 88.1 inactive
Glipr1 (GLI pathogenesis related 1): #1 53.4 inactive; #2 101 inactive; #3 79.4 inactive
Cox11 (cytochrome c oxidase assembly protein 11, copper chaperone): #1 71.1 inactive; #2 80.6 inactive; #3 65.9 inactive
Ppp1r15a (protein phosphatase 1, regulatory subunit 15A): #1 72.3 inactive; #2 86.4 inactive
Anapc11 (anaphase promoting complex subunit 11): #1 75.2 inactive; #2 98.4 inactive; #3 59.1 inactive
Rbl1 (RB transcriptional corepressor like 1): #1 72.7 inactive; #2 58.1 inactive; #3 102 inactive
Tsbp1 (testis expressed basic protein 1): #1 60.7 inactive; #2 150 active; #3 82.4 inactive
Cops3 (COP9 signalosome subunit 3): #1 66.4 inactive; #2 89.7 inactive
Ms4a2 (membrane-spanning 4-domains, subfamily A, member 2): #1 68 inactive; #2 129 active; #3 45.2 inactive
Or11h4b (olfactory receptor family 11 subfamily H member 4B): #1 89.3 inactive; #2 58.1 inactive; #3 74 inactive
A130014H13Rik (RIKEN cDNA A130014H13 gene): #1 76 inactive; #2 53 inactive; #3 79.3 inactive
Pde4a (phosphodiesterase 4A, cAMP specific): #1 83.4 inactive; #2 82.6 inactive; #3 109 inactive
Gpr31b (G protein-coupled receptor 31, D17Leh66b region): #1 71.3 inactive; #2 85.9 inactive; #3 69.8 inactive
